The text below walks through data of PubChem BioAssay AID493014 (National Center for Advancing Translational Sciences (NCATS), 2011).

Usually AC50 stands for the concentration at which the activity in the assay is half-maximal.

The other results are listed elsewhere or left out. Shown are side measurements of this screen, not its main read-out; they come without a call. The list favours compounds with an active or inconclusive main result. Words in brackets tell the shape of the fitted curve; partial curves, single points and poor fits give uncertain potencies.

This experiment can be described thus: qHTS Assay to Find Inhibitors of Chronic Active B-Cell Receptor Signaling. The following applies: ABC-DLBCL IkBa-CBG/CBR reporter, luminescence ratio (green luciferase fused to IkBa over red control in TMD8 lymphoma cells), 4 h. Put shortly: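 TMD8 ABC-DLBCL cells carrying doxycycline-inducible green luciferase fused to IkappaBalpha plus unfused red luciferase were exposed to compounds (up to 46 uM) for 4 hrs at 37C. Activity came from the overlap-corrected green/red luminescence ratio.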
(In general: Quantitative high-throughput screening tests each substance at several concentrations.)

Where [1] appears, read: measured here: CBR red luminescence, cell number.
The mark [2] stands for this setting: measured here: IkBa-CBG green luminescence.

Consider `O=C(N1CCOCC1)N1CCN(S(=O)(=O)N2CCCCC2)CC1`, for which, under setting [1], the AC50 is 29.1 µM [falling, single point].
Take `O=C1c2cc(N3CCCC3)c([N+](=O)[O-])cc2C(=O)N1c1ccccc1`: under setting [1], the AC50 was 29.1 µM [rising, partial curve, poor fit].
Consider `COc1ccc(C(CC(=O)NCc2ccco2)c2ccc(F)cc2)cc1` (stereo not given), for which, under setting [1], the concentration at half-maximal activity (AC50) is 35.5 µM [falling, single point].
For the compound `COc1ccc(/C=N/Nc2ncnc3sc4c(c23)CCCC4)cc1O`, the AC50 under setting [1] was 13 µM [falling, partial curve, poor fit].
Consider `COc1ccc2c(c1OC)C(=O)N(c1ccccc1)C2=O`, for which the AC50 under setting [1] is 5.62 µM [rising, single point].
As for `O=C(CSc1nc2ccccc2c(=O)n1-c1ccc(Cl)cc1)N/N=C/C=C/c1ccccc1[N+](=O)[O-]`, the AC50 under setting [1] is 2.59 µM [falling, full curve].
On the same count and under the same terms, to `COc1ccc(N2CS(=O)CC2=O)cc1` (stereo not given) belongs 35.5 µM [rising, single point].
Same read-out and setting: the value for `O=C(Cn1cnc2ccccc2c1=O)Nc1cccc(-c2nnc3n2CCCCC3)c1` was 32.6 µM [falling, single point].
With `O=C(NCc1ccco1)C(c1cccs1)N(C(=O)C1COc2ccccc2O1)c1cccc(O)c1` (stereo not given), the AC50 under setting [1] was 29.1 µM [falling, single point].
Still for that read-out and setting: the value for `CC(C)c1ccccc1NC(=O)COC(=O)Cc1c[nH]c2ccccc12` was 14.6 µM [falling, partial curve, poor fit]; that for `COC1=C/C(=C/c2c(N)n3cc(C)sc3nc2=O)C=CC1=O` was 32.6 µM [falling, single point]; that for `Cc1c(C(=O)O)cnc2cc(-c3ccc(Cl)cc3)nn12` was 18.4 µM [falling, partial curve].
Same read-out and setting: to `NC(=O)c1cc(Br)cc(C2CCCCC2)c1O` belongs 12.6 µM [rising, partial curve].
Take `NCC(c1ccccc1)(c1ccccc1)c1ccccc1`: the AC50 under setting [1] is 32.6 µM [falling, single point].
With `O=C(N/N=C/c1ccc2c(c1)OCO2)c1ccc(Br)o1`, the AC50 under setting [1] is 7.31 µM [falling, partial curve].
Still for that read-out and setting: the value for `CCC(=O)N1CCN(c2ccc(NC(=O)c3cc4ccccc4o3)cc2)CC1` was 29.1 µM [falling, single point].
For `CCNC(=S)NNc1nncc2ccccc12`, the AC50 under setting [2] is 25.1 µM [falling, single point].
With `COc1ccnc(Oc2ccc3ccccc3c2)c1C#N`, under setting [1], the AC50 was 3.55 µM [rising, partial curve, poor fit].
Same read-out and setting: the value for `C/C(=N\O)c1cccc(Br)c1` was 7.94 µM [rising, partial curve, poor fit]; that for `Cc1noc(C)c1CN1C(=O)NC2(CCCCCCC2)C1=O` was 10.3 µM [falling, partial curve, poor fit].
For `O=C(CSc1nnc(CNc2ccc(F)cc2)o1)c1ccccc1`, the AC50 by setting is: under setting [1], 1.41 µM [falling, full curve]; under setting [2], 1.41 µM [rising, full curve, poor fit].
As to `COc1cc(CCc2ccccc2)c(C(=O)O)c(O)c1C/C=C(/C)CCC=C(C)C`, under setting [1], the AC50 was 8.2 µM [rising, partial curve, poor fit].
On the same count and under the same terms, the value for `CCN(CC)CCNc1ccnc2cc(Cl)ccc12` was 14.6 µM [falling, single point]; that for `COc1ccc(OC)c(-c2nnc(-c3ccc(C)o3)o2)c1` was 0.259 µM [falling, full curve, poor fit].
Same read-out and setting: the value for `CCN(CC)Cc1cc(C(C)=O)ccc1OCC(C)C` was 3.16 µM [falling, partial curve, poor fit].
The same measure, in the same setting: the value for `O=C(NCc1cccnc1)c1ccc(COc2cccc3ccccc23)o1` was 22.4 µM [falling, single point]; that for `CCn1c(=O)c(-c2nc3ccccc3[nH]2)c(O)c2ccccc21` was 1 µM [falling, full curve, poor fit].
With `O=C(O)c1ccc(CSc2nnc(-c3cccnc3)n2-c2ccc(Br)cc2)cc1`, under setting [1], the AC50 is 0.0891 µM [rising, full curve, poor fit].
On to `Cc1oc(C(=O)O)cc1COc1ccc2c(C)cc(=O)oc2c1`, for which the AC50 under setting [1] is 23.1 µM [falling, single point].
Turning to `O=C(Nc1cccc(F)c1)N1CC=C(c2ccc(Cl)cc2)CC1`, the AC50 under setting [1] is 29.1 µM [falling, single point].
On the same count and under the same terms, to `COc1cc2c(cc1OC)C(c1ccc(-c3cc(Cl)ccc3Cl)o1)=NCC2` belongs 0.13 µM [rising, full curve, poor fit].
The same measure, in the same setting: the value for `Cc1onc(-c2ccccc2)c1C(=O)NC(=S)Nc1sc2c(c1C#N)CCCC2` was 2.31 µM [rising, full curve]; that for `CCCc1ccc(OCCNC(=O)CC)cc1` was 4.61 µM [rising, full curve, poor fit].
The same measure, in the same setting: the value for `CS(=O)(=O)c1ccc(Sc2nc3ccccc3s2)c([N+](=O)[O-])c1` was 2.59 µM [falling, full curve].
Turning to `COc1ccccc1N=NC1C(=O)N(C(N)=S)N=C1C` (stereo not given), the AC50 under setting [2] is 20 µM [falling, single point].
Take `CCN(CC)CCCNC(=O)CSc1nc2c(c(C(F)(F)F)n1)CCc1ccccc1-2`: the AC50 under setting [1] was 35.5 µM [falling, single point].
As for `C#CCOc1ccccc1CNc1ccccc1`, the AC50 under setting [1] was 16.4 µM [rising, single point].
Regarding `COc1ccc(N2CCN(C(c3nnnn3CCc3ccccc3)C(C)C)CC2)cc1` (stereo not given), under setting [1], the AC50 was 5.62 µM [falling, single point].
For `S=C(Nc1ccccc1)N1N=C(c2cccs2)CC1c1cccs1` (stereo not given), the AC50 under setting [1] is 15.8 µM [falling, single point].
Same read-out and setting: to `C/C(=N\N=C1\NC(=O)C(Cc2ccccc2)S1)c1ccccc1` (stereo not given) belongs 3.16 µM [rising, partial curve].
For `COC(=O)/C=C\C(=O)Nc1cccc([N+](=O)[O-])c1`, the AC50 was 29.1 µM [falling, single point] under setting [1] and 23.1 µM [rising, partial curve, poor fit] under setting [2].
For `CCc1nc2ccccc2c(C(=O)OCCN2C(=O)c3ccccc3C2=O)c1C`, the AC50 under setting [1] is 7.08 µM [falling, full curve].
Same read-out and setting: to `Cc1cccc([C@@H]2[C@@H]3C(=O)N(Cc4ccccc4)C(=O)[C@@H]3[C@]3(Cc4ccc(Cl)cc4)C(=O)N(c4cccc(Br)c4)C(=O)N23)c1` belongs 0.562 µM [falling, partial curve, poor fit].
